Data as given in PubChem BioAssay AID1159584 (Peter MacCallum Cancer Centre, 2016)
Aim: 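Genes that CDH1-null MCF10A cells selectively depend on to survive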 (primary screen). Cell system: human MCF10A breast epithelial cells, parental and CDH1-null. Reagent: siRNA against human genes. Measured: 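Cell viability by CellTiter-Glo ATP luminescence, each line scaled to the mean of mock wells across plates, then CDH1-null over parental ratio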. Scale: CDH1-null / parental viability ratio: higher = CDH1-null cells survive relatively better than parental.
The whole screen tested about 18,000 reagents; this is an unselected part. Further read-outs or replicates are left out here. Not given: the amount of reagent, the time to read-out.

| target | CDH1-null / parental viability ratio |
| --- | --- |
| LMNB2 (lamin B2) | 1 |
| ACACB (acetyl-CoA carboxylase beta) | 1.03 |
| AQP6 (aquaporin 6) | 1.09 |
| CYP19A1 (cytochrome P450 family 19 subfamily A member 1) | 1.01 |
| TCERG1L (transcription elongation regulator 1 like) | 1.22 |
| SLC9B2 | 0.9 |
| PARP1 (poly(ADP-ribose) polymerase 1) | 0.93 |
| EIF2B2 (eukaryotic translation initiation factor 2B subunit beta) | 0.66 |
| TMEM138 (transmembrane protein 138) | 0.84 |
| ATP6V1G3 (ATPase H+ transporting V1 subunit G3) | 1.01 |

The list goes on; the last 4 above are carried over.
| target | CDH1-null / parental viability ratio |
| --- | --- |
| PARP1 (poly(ADP-ribose) polymerase 1) | 0.93 |
| EIF2B2 (eukaryotic translation initiation factor 2B subunit beta) | 0.66 |
| TMEM138 (transmembrane protein 138) | 0.84 |
| ATP6V1G3 (ATPase H+ transporting V1 subunit G3) | 1.01 |
| UBE2A (ubiquitin conjugating enzyme E2 A) | 1.19 |
| CDK5RAP3 (CDK5 regulatory subunit associated protein 3) | 1.25 |
| EPS8L2 (EPS8 signaling adaptor L2) | 1 |
| ARC (activity regulated cytoskeleton associated protein) | 0.96 |
| ZNF502 (zinc finger protein 502) | 1.13 |
| AFF1 (ALF transcription elongation factor 1) | 0.82 |
| PRRG2 (proline rich and Gla domain 2) | 0.92 |
| CMTM7 (CKLF like MARVEL transmembrane domain containing 7) | 0.97 |
| ESX1 (ESX homeobox 1) | 0.86 |
| BRWD1 (bromodomain and WD repeat domain containing 1) | 0.99 |
| EFNA3 (ephrin A3) | 0.82 |
| ACVR1 (activin A receptor type 1) | 0.77 |
| VDAC3 (voltage dependent anion channel 3) | 1.42 |
| UGT2B28 (UDP glucuronosyltransferase family 2 member B28) | 0.92 |
| ZNF784 (zinc finger protein 784) | 1 |
| PSKH1 (protein serine kinase H1) | 1.05 |
| UBA3 (ubiquitin like modifier activating enzyme 3) | 1.1 |
| C19orf25 (chromosome 19 open reading frame 25) | 1.14 |
